Consider 8 compounds from the supplement of paper PMC12542422.

Experiment [1] relates to HeLa K (ENP1 immunofluorescence, +LMB). Nature of the experiment: fraction of cells with nucleolar or nucleolar/nucleoplasmic ENP1 signal (MainHitrate); higher = more cells with nucleolar/nuclear readout signal (for ENP1 -LMB: less RNAPI inhibition; for +LMB ENP1 and RP reporters: stronger nuclear/nucleolar retention, i.e. ribosome biogenesis defect). To be noted: concentration: 1 µM; treatment time: 6 h; ENP1 +LMB; leptomycin B: 20 nM, last 1.5 h.

Experiment [2] deals with HeLa K (ENP1 immunofluorescence, no LMB). The description is as above. To be noted: concentration: 1 µM; treatment time: 6 h; ENP1 -LMB; leptomycin B: none.
Another experiment has as its system HeLa RPS2-YFP reporter. Nature of the experiment: fraction of reporter-positive cells with nuclear (nucleolar or nucleolar/nucleoplasmic) RPS2-YFP (MainHitrate); higher = more cells with nucleolar/nuclear readout signal (for ENP1 -LMB: less RNAPI inhibition; for +LMB ENP1 and RP reporters: stronger nuclear/nucleolar retention, i.e. ribosome biogenesis defect). Conditions: concentration: 1 µM; treatment time: 6 h.

A further experiment concerns HeLa RPL29-GFP reporter. In words: fraction of reporter-positive cells with nuclear (nucleolar or nucleolar/nucleoplasmic) RPL29-GFP (MainHitrate); higher = more cells with nucleolar/nuclear readout signal (for ENP1 -LMB: less RNAPI inhibition; for +LMB ENP1 and RP reporters: stronger nuclear/nucleolar retention, i.e. ribosome biogenesis defect). To be noted: concentration: 1 µM; treatment time: 6 h.

Counter-ions that a name gives are not always drawn. ± gives the standard deviation of the averaged measurements. The list shows a part of the results. These are raw signals, not scaled to a control.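 Across three biological replicates, HeLa cells were imaged for ribosome assembly using ENP1 staining (export block present or absent) or inducible tagged ribosomal protein reporters. Machine learning classified each cell's signal localization relative to DMSO controls. Hits exceeded the DMSO false-positive mean by five standard deviations and were then visually confirmed.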

Turning to `COc1ccc(C[C@@H]2c3cc(OC)c(OC)cc3CC[N@+]2(C)CCC(=O)OCCCCCOC(=O)CC[N@@+]2(C)CCc3cc(OC)c(OC)cc3[C@H]2Cc2ccc(OC)c(OC)c2)cc1OC` [Cisatracurium besylate (Nimbex)], the fraction in experiment [1] is 0.0794 ± 0.11; in experiment [2], 0.991 ± 0.015. Besides, the results for the “fraction of reporter-positive cells with nuclear” value (shortened to “fraction … with nuclear”) in the experiment with HeLa RPS2-YFP reporter and in the experiment with HeLa RPL29-GFP reporter were 0.143 ± 0.099 and 0.233 ± 0.062, respectively.

Turning to `O.O=[Si]=O.O=[Si]=O.O=[Si]=O.O=[Si]=O.[O]=[Mg].[O]=[Mg].[O]=[Mg]`, the fraction in experiment [1] came to 0.118 ± 0.18; in experiment [2] it was 0.983 ± 0.029. Besides, the results for the “fraction … with nuclear” value with HeLa RPS2-YFP reporter and in the experiment with HeLa RPL29-GFP reporter were 0.106 ± 0.061 and 0.224 ± 0.085, respectively.

Take `C=C1CC[C@H](O)C/C1=C/C=C1\CCC[C@]2(C)[C@@H]([C@H](C)CCCC(C)(C)O)CC[C@@H]12` [Calcifediol]: the fraction in experiment [1] amounted to 0.0607 ± 0.029; in experiment [2] it was 0.9981 ± 0.0034. The entries for the “fraction … with nuclear” value in the experiment on HeLa RPS2-YFP reporter and with HeLa RPL29-GFP reporter were 0.117 ± 0.044 and 0.225 ± 0.056, respectively.

Take `CNC(=O)c1cc(Oc2ccc(NC(=O)Nc3ccc(Cl)c(C(F)(F)F)c3)cc2)ccn1` [Sorafenib (Nexavar)]: the fraction in experiment [1] turned out to be 0.0474 ± 0.019; in experiment [2], 0.9986 ± 0.0025. Also, the “fraction … with nuclear” value was determined as 0.0687 ± 0.064 in the experiment with HeLa RPS2-YFP reporter and 0.217 ± 0.052 in the experiment on HeLa RPL29-GFP reporter.

With `CC(=O)O[C@]1(C(C)=O)CC[C@H]2[C@@H]3C[C@H](C)C4=CC(=O)CC[C@]4(C)[C@H]3CC[C@@]21C` [Medroxyprogesterone acetate], the values for the fraction in experiment [1] and in experiment [2] were 0.131 ± 0.19 and 0.9956 ± 0.0076, respectively. The “fraction … with nuclear” value in the experiment with HeLa RPS2-YFP reporter turned out to be 0.179 ± 0.13; in the experiment with HeLa RPL29-GFP reporter, 0.305 ± 0.085.

With `C=C1c2cccc(O)c2C(=O)C2=C(O)[C@]3(O)C(=O)C(C(N)=O)=C(O)[C@@H](N(C)C)[C@@H]3[C@@H](O)[C@H]12` [Methacycline hydrochloride (Physiomycine)], the fraction in experiment [1] amounted to 0.113 ± 0.16; in experiment [2], 0.9948 ± 0.0091. For the same compound, the “fraction … with nuclear” value with HeLa RPS2-YFP reporter turned out to be 0.117 ± 0.072; with HeLa RPL29-GFP reporter, 0.276 ± 0.1.

`C#CCN(C)CCCOc1ccc(Cl)cc1Cl` [Clorgyline HCl]: the results for the fraction in experiment [1] and in experiment [2] were 0.16 ± 0.14 and 0.994 ± 0.011, respectively. Moreover, the “fraction … with nuclear” value with HeLa RPS2-YFP reporter came out at 0.164 ± 0.15; in the experiment on HeLa RPL29-GFP reporter it was 0.286 ± 0.16.

For the compound `CNCC[C@@H](Oc1ccccc1C)c1ccccc1` [Atomoxetine HCl], the fraction in experiment [1] is 0.115 ± 0.17; in experiment [2], 0.994 ± 0.01. Besides, the results for the “fraction … with nuclear” value with HeLa RPS2-YFP reporter and with HeLa RPL29-GFP reporter were 0.15 ± 0.058 and 0.205 ± 0.087, respectively.
